Assay [1] concerns the target T1, GST-PIPK_(343 – 805) (GST-tagged PIPK domain of RpkA, residues 343 – 805) (D. discoideum) (UniProt Q86D86).
T1 sequence: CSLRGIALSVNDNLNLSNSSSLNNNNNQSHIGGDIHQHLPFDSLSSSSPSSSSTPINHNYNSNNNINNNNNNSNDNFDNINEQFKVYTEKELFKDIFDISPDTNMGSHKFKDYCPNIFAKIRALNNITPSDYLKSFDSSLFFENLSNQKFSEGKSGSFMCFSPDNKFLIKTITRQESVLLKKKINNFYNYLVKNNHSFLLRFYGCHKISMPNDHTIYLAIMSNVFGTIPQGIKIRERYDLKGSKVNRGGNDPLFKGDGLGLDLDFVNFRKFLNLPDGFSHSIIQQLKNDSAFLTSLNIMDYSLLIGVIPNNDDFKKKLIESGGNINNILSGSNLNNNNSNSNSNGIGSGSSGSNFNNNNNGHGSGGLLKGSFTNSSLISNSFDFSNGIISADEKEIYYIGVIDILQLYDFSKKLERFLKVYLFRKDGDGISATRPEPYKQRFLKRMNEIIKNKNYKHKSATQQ
As to the kind of experiment: pull-down; GST, GST-PIPK(343-805) and GST-PIPK(370-828) incubated with a pre-cleared lysate of rpkA- cells expressing VatM-GFP; 50 mM Tris-HCl pH 7.4, 100 mM NaCl, 0.5% NP40; 3 h or overnight; Western blot with GFP-specific and VatA-specific mAbs; only the target purified. In general terms: A western blot detects proteins with antibodies after separation by electrophoresis.

By UniProt entry, the sequences of proteins in these tests, tags left out.
UniProt P54647: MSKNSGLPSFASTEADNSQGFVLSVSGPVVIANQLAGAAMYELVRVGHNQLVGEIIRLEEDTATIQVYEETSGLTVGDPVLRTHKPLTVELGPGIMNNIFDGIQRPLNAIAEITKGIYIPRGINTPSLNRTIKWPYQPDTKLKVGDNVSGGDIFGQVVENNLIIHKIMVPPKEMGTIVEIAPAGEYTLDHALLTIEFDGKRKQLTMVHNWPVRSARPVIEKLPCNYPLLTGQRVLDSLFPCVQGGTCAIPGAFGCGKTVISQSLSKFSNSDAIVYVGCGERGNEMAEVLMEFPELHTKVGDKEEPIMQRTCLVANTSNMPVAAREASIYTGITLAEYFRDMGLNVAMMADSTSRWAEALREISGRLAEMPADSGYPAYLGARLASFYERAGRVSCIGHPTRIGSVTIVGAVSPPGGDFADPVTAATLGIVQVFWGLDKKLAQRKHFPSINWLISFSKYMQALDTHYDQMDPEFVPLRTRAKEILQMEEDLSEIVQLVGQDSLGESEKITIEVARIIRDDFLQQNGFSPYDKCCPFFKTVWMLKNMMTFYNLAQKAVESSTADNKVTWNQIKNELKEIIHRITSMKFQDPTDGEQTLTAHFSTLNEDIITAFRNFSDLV

In assay [2] the target is T2, GST-PIPK_(370 – 828) (GST-tagged PIPK domain of RpkA, residues 370 – 828) (D. discoideum) (UniProt Q86D86).
T2 sequence: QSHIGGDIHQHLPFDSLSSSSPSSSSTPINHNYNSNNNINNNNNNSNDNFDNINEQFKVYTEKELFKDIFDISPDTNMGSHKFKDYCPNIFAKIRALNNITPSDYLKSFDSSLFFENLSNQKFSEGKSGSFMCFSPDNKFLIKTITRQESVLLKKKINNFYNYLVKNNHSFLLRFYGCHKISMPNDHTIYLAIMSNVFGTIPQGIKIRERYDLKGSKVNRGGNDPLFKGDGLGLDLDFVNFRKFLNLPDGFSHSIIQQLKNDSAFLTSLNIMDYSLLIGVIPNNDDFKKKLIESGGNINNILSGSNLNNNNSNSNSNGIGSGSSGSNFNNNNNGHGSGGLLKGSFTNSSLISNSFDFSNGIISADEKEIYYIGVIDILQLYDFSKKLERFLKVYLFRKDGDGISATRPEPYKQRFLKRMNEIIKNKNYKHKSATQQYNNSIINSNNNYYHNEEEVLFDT
The assay is described as above.

These are yes or no findings as the source states them, for the method shown. Binding seen in cells or lysates may run through a third protein. Some results given as binding are weak or reduced against the parent protein; the word gives no strength. Tags and fused reporters may be left off the sequences shown.

Results on 2 molecules are retold here after paper PMC3206951.

Turning to “VatA, subunit A of the vacuolar H+-ATPase (from UniProt P54647 1-618)”, the binding entry in assay [1] and in assay [2] was “binds” in each case.

B1: VatM-GFP (membrane-spanning subunit of the V-ATPase complex, GFP-tagged) (protein, UniProt Q54E04 1-815)
chain: MSFLRPSIWRSSPMQMVQLFVQIEAAHDTVDELGKLGLIQFLDDNEHVNLFQRNFVNEVKRCDDMEKKLKFFEDQVKKEPKLQKLLPDNMLSVVDDDSQMDELEGRFDELESELKQVNANQETLQRNYNELIQLRHVLTKDSVFFQENPNLIEGEGHEHSARSPLLAEDQHVSEVAKQGVKLGFITGVMNTDKMPQFQRSLWRTTRGNNYVKDARIEEEIIDPQTGEETAKTVFIVFFQGERLQQKIKKICESFGANIYDCPDNSFERSNLLQKVTVRITDLYEVLQRSKDHKRQTLAGIVPRLYSWKKKVLLEKSIYHTMNLFDYDVGRKCLIAKGWTPKDKIEEIQLALRTATTRSGALVPSVLSIIKTEGSPPTHFETNKYTSSFQEIVNAYGIAHYREVNPAVLTIVTFPFLFGVMFGDVGHGALLLLSALGLISLEKKLAGKKLNELIQMPFDGRYVLFLMSLFSIYVGFIYNECFSIPMNIFGSQYNLNSTTGLYTYQHTDRVYPVGVDPLWKGAPNELVYYNSFKMKLSIIFGVVQMSVGICFSLLNYLNQKGPIKIVNILTQFVPQMIFLWSIFGYMSVLIILKWVVPYRSFEVDKVDPPFILPTIIAMFLSPGGTPDVVFFSGQGAVQTALLFLALISIPVMLVIKPLFMKRFHFQEVERKKLGHHEEEHDDEALYTGHHGEEFEMGEVFVHQVIHTIEFVLGAVSNTASYLRLWALSLAHSELSSVFWERILIGQVERGNPFLAFVGFGAWLGASVAVLLLMESLSAFLHALRLHWVEFQNKFYIGDGVRFIPYSATRILSEDDE
For the molecule B1, the binding entry in assay [1] and in assay [2] was “binds” throughout.
